# Where a name gives a salt, the structure may show the parent alone. This is one part of the list. Repeats are few or missing, and single values can be far off.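 The three strains are clinical Candida auris isolates from the CDC resistance isolate bank, from clades III, IV and I, grown in RPMI-1640 at 35°C. Growth is background-corrected OD600 relative to vehicle-only wells on the same plate; a hit meant over 50% inhibition in at least two strains plus a plate-corrected B-score above 0.1.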
# Experiments:
# Assay in all cases: growth relative to vehicle control (OD600 ratio) (fraction); higher = less inhibition
# Details in all cases: 24 h
# C. auris AR-384 = system: C. auris AR-384
# C. auris AR-386 = system: C. auris AR-386
# C. auris AR-387 = system: C. auris AR-387
SMILES,growth (C. auris AR-384; 1 µM),growth (C. auris AR-384; 10 µM),growth (C. auris AR-386; 1 µM),growth (C. auris AR-386; 10 µM),growth (C. auris AR-387; 1 µM),growth (C. auris AR-387; 10 µM)
c1ccc(CC2=NCCN2)cc1 [Tolazoline HCl],1.15,0.99,0.95,0.93,0.94,1.04
CCCc1ncc(C[n+]2ccccc2C)c(N)n1 [Amprolium HCl],0.93,1.09,0.88,1.04,0.83,1.08
CC(=O)OCC(=O)[C@H]1CC[C@H]2[C@@H]3CCC4=CC(=O)CC[C@]4(C)[C@H]3CC[C@]12C [Deoxycorticosterone acetate],0.94,0.91,0.93,0.97,1.05,0.8
Cc1c(-c2ccnn2C)cc(C(=O)NCc2ccc(S(C)(=O)=O)cn2)c(=O)n1-c1cccc(C(F)(F)F)c1 [Alvelestat (AZD9668)],1.33,1.69,1.04,1.33,1.14,1.56
C=C1/C(=C\C=C2/CCC[C@]3(C)[C@@H]([C@H](C)/C=C/[C@H](C)C(C)C)CC[C@@H]23)C[C@@H](O)C[C@@H]1O [Doxercalciferol],1.12,1.13,0.72,1.04,0.82,1.26
NC(N)=O,0.86,0.75,0.89,0.72,0.9,0.86
C[C@]12CCC(=O)C=C1[C@@H]1C[C@@H]1[C@H]1[C@@H]3[C@@H]4C[C@@H]4[C@@]4(CCC(=O)O4)[C@@]3(C)CC[C@@H]12 [Drospirenone],1.11,0.82,1.12,1.3,1.33,0.98
CCCN(CCc1cccs1)[C@H]1CCc2c(O)cccc2C1 [Rotigotine],0.95,0.8,0.79,0.94,0.94,0.96
CN1CCN(CCCN2c3ccccc3Sc3ccc(Cl)cc32)CC1 [Prochlorperazine dimaleate salt],0.91,1.06,1.01,1.09,0.99,1.41
CCC(C)(Oc1ccc(C2(c3ccc(OC(C)(CC)C(=O)O)cc3)CCCCC2)cc1)C(=O)O (stereo not given) [Clinofibrate],0.8,0.92,0.84,0.95,0.83,1.03
CCC1(c2c[nH]cn2)Cc2ccccc2C1 [Atipamezole],1.12,1.17,1.03,0.69,0.88,0.97
NS(=O)(=O)NCCNc1nonc1/C(=N/O)Nc1ccc(F)c(Br)c1,1.07,0.92,0.75,0.99,0.85,0.88
COC(=O)C1=C(C)NC(C)=C(C(=O)OCC(C)C)C1c1ccccc1[N+](=O)[O-] (stereo not given) [Nisoldipine],1.02,1.05,1.02,0.67,1.13,1.46
COc1ccnc(C[S+]([O-])c2nc3cc(OC(F)F)ccc3[nH]2)c1OC (stereo not given) [Pantoprazole],0.78,1.06,0.86,1.04,0.89,0.63
C=CCc1cc(OC)c(O)c(C(=O)NCCO)c1 [Alibendol],0.78,0.84,0.86,1.19,1.1,0.93
N=C(N)NC(=N)N1CCOCC1 [Moroxydine HCl],0.86,1.01,0.76,1.15,0.97,0.96
C[N+]1(C)CCC(=C(c2ccccc2)c2ccccc2)CC1 [Diphemanil Methylsulfate],0.98,0.67,0.71,0.65,0.67,0.87
COc1cc2nccc(Oc3ccc(NC(=O)Nc4cc(C)on4)c(Cl)c3)c2cc1OC [Tivozanib (AV-951)],1.47,0.71,0.84,1.36,1.19,0.97
O=C1Nc2ccc(Cl)cc2[C@@](C#CC2CC2)(C(F)(F)F)O1 [Efavirenz],1.03,1.06,0.88,0.9,0.7,0.74
O=C(O)c1ccccc1O [Salicylic acid],0.73,0.64,0.79,0.57,0.78,0.64
CCC(=O)OCC(=O)[C@@]1(OC(=O)CC)[C@@H](C)C[C@H]2[C@@H]3CCC4=CC(=O)C=C[C@]4(C)[C@@]3(F)[C@@H](O)C[C@@]21C [Betamethasone Dipropionate],0.92,1.17,0.97,1,0.8,0.98
CC(=O)O[C@H]1Cc2ccccc2N(C(N)=O)c2ccccc21 [Eslicarbazepine Acetate],0.75,0.82,0.78,0.8,0.97,0.93
CC1=Nc2ccc(Cl)cc2S(=O)(=O)N1 [Diazoxide],0.93,0.93,0.95,1.12,1.18,1.16

# Molecules from the list above that contain an aryl methoxy group, in the order listed:
SMILES,growth (C. auris AR-384; 1 µM),growth (C. auris AR-384; 10 µM),growth (C. auris AR-386; 1 µM),growth (C. auris AR-386; 10 µM),growth (C. auris AR-387; 1 µM),growth (C. auris AR-387; 10 µM)
COc1ccnc(C[S+]([O-])c2nc3cc(OC(F)F)ccc3[nH]2)c1OC (stereo not given) [Pantoprazole],0.78,1.06,0.86,1.04,0.89,0.63
C=CCc1cc(OC)c(O)c(C(=O)NCCO)c1 [Alibendol],0.78,0.84,0.86,1.19,1.1,0.93
COc1cc2nccc(Oc3ccc(NC(=O)Nc4cc(C)on4)c(Cl)c3)c2cc1OC [Tivozanib (AV-951)],1.47,0.71,0.84,1.36,1.19,0.97

# (continued)

SMILES,growth (C. auris AR-384; 1 µM),growth (C. auris AR-384; 10 µM),growth (C. auris AR-386; 1 µM),growth (C. auris AR-386; 10 µM),growth (C. auris AR-387; 1 µM),growth (C. auris AR-387; 10 µM)
O=C(CCCN1CCN(c2ccccn2)CC1)c1ccc(F)cc1 [Azaperone],1.1,0.93,0.95,0.52,0.9,0.72
CC(C)(CO)C(O)C(=O)NCCCO (racemic) [DL-Panthenol],1.03,0.93,0.74,1.05,0.74,0.82
C[C@@H](O)[C@H]1C(=O)N2C(C(=O)O)=C(SCCNC=N)C[C@H]12 [Imipenem],0.79,0.6,1.06,0.48,0.71,0.91
COc1cc([C@@H]2c3cc4c(cc3[C@@H](O[C@@H]3O[C@@H]5CO[C@@H](C)O[C@H]5[C@H](O)[C@H]3O)[C@H]3COC(=O)[C@H]23)OCO4)cc(OC)c1O [Etoposide],0.67,0.9,1.03,0.73,0.7,0.95
COC(=O)c1ccc2c(c1)NC(=O)/C2=C(\Nc1ccc(N(C)C(=O)CN2CCN(C)CC2)cc1)c1ccccc1 [Nintedanib (BIBF 1120)],1.22,0.76,0.56,0.87,0.95,0.96
Cc1ccc(S(=O)(=O)NC(=O)NN2CC3CCCC3C2)cc1 (stereo not given) [Gliclazide],1,1.04,1.11,0.89,0.66,0.58
CN(C)CCC=C1c2ccccc2C=Cc2ccccc21 [Cyclobenzaprine HCl],0.86,0.69,0.7,0.71,0.74,0.91
CC(C)NC[C@H](O)COc1ccc(CCOCC2CC2)cc1 [Levobetaxolol HCl],1.01,0.89,1.3,0.57,0.71,0.73
NCCC[C@H](N)C(=O)O [L-Ornithine],0.88,1.2,0.91,1.02,0.78,1.04
CC(C)NCC(O)c1cc(O)cc(O)c1 (stereo not given) [Metaproterenol Sulfate],1.07,1,0.89,1.01,0.84,0.76
O=C(O)CCNC(=O)c1ccc(/N=N/c2ccc(O)c(C(=O)O)c2)cc1 [Balsalazide disodium],1.02,0.91,0.96,1.14,1.23,0.92
C[C@H](O)C(=O)Nc1c(I)c(C(=O)NC(CO)CO)c(I)c(C(=O)NC(CO)CO)c1I [Iopamidol],0.93,0.75,0.82,0.94,0.97,0.85
CCc1nc(N)nc(N)c1-c1ccc(Cl)cc1 [Pyrimethamine],0.73,0.76,0.76,0.9,0.9,0.89
Cc1cnc(C(=O)NCCc2ccc(S(=O)(=O)NC(=O)NC3CCCCC3)cc2)cn1 [Glipizide],1.56,0.82,1.19,0.68,0.88,0.64
CC(S)C(=O)NCC(=O)O (stereo not given) [Tiopronin],1.11,1.07,1.21,0.96,0.81,0.79
CS(=O)(=O)c1ccc([C@@H](O)[C@@H](CF)NC(=O)C(Cl)Cl)cc1 [Florfenicol],1.04,0.7,0.85,0.93,0.91,1.01
O=C(NCCO[N+](=O)[O-])c1cccnc1 [Nicorandil],0.75,0.69,0.56,0.93,0.81,0.59
Cc1ccc(-n2nc(C(C)(C)C)cc2NC(=O)Nc2ccc(OCCN3CCOCC3)c3ccccc23)cc1 [Doramapimod (BIRB 796)],0.97,1.2,1.36,1.23,1.39,1.28
OCc1cc([C@@H](O)CNCCCCCCOCCOCc2c(Cl)cccc2Cl)ccc1O [Vilanterol Trifenate],1.09,1.05,0.86,1.4,1.09,1.3
OCC(O)CN1CCN(c2ccccc2)CC1 (stereo not given) [Dropropizine],0.92,0.94,0.85,1.02,0.73,0.71
CN1CCC[C@@H]1CCO[C@](C)(c1ccccc1)c1ccc(Cl)cc1 [Clemastine Fumarate],0.91,0.85,0.95,0.81,1.21,1.02
COc1c(C)c2c(c(O)c1C/C=C(\C)CCC(=O)O)C(=O)OC2 [Mycophenolic acid],0.72,0.76,0.88,0.66,0.85,0.83

# Reference: the supplement of paper PMC10470496
